# Results as given in the supplement of paper PMC10849652.
# The chains behind the UniProt entries cited, without tags or fusion partners. Where a name states a change or a piece, a line headed by the entry shows the natural chain unless it says otherwise.
# UniProt Q8TDZ2: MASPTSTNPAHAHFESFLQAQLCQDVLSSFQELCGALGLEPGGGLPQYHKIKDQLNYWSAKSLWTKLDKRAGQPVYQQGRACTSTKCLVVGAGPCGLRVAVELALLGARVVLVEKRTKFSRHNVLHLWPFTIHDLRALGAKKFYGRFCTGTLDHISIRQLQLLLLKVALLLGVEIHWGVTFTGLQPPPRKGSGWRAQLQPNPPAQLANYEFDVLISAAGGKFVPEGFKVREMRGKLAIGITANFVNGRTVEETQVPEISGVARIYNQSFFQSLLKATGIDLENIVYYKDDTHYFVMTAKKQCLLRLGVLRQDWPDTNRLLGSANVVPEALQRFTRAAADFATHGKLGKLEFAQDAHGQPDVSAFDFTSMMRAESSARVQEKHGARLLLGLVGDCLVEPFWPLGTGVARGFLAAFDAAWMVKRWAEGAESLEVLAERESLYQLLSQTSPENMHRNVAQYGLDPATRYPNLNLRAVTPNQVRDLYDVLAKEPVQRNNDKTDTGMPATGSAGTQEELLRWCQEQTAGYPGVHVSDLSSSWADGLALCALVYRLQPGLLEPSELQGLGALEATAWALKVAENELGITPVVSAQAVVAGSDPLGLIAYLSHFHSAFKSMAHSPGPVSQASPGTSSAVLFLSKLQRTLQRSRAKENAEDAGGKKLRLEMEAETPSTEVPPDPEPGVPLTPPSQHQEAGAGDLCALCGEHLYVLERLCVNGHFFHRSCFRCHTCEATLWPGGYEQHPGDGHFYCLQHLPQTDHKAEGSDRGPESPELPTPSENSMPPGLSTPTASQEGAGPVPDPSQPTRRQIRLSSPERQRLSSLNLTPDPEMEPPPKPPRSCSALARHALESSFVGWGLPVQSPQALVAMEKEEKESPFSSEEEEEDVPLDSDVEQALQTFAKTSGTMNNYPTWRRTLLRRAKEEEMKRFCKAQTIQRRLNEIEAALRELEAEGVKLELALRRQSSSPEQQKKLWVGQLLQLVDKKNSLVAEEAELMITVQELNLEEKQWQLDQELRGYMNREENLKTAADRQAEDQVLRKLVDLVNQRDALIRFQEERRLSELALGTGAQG
# UniProt Q8N108: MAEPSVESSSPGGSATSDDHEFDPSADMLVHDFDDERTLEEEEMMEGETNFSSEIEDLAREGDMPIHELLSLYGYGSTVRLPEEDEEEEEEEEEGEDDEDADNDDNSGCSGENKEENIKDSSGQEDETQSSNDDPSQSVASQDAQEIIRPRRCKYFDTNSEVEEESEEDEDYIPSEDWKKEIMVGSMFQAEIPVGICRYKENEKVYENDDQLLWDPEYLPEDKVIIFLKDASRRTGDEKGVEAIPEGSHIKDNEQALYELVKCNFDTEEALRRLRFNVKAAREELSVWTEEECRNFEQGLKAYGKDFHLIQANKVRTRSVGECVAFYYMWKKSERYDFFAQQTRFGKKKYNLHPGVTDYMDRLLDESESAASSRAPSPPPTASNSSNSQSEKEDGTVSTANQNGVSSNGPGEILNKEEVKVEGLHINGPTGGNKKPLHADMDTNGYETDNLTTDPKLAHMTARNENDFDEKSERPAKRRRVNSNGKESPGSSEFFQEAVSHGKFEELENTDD
# UniProt Q13201: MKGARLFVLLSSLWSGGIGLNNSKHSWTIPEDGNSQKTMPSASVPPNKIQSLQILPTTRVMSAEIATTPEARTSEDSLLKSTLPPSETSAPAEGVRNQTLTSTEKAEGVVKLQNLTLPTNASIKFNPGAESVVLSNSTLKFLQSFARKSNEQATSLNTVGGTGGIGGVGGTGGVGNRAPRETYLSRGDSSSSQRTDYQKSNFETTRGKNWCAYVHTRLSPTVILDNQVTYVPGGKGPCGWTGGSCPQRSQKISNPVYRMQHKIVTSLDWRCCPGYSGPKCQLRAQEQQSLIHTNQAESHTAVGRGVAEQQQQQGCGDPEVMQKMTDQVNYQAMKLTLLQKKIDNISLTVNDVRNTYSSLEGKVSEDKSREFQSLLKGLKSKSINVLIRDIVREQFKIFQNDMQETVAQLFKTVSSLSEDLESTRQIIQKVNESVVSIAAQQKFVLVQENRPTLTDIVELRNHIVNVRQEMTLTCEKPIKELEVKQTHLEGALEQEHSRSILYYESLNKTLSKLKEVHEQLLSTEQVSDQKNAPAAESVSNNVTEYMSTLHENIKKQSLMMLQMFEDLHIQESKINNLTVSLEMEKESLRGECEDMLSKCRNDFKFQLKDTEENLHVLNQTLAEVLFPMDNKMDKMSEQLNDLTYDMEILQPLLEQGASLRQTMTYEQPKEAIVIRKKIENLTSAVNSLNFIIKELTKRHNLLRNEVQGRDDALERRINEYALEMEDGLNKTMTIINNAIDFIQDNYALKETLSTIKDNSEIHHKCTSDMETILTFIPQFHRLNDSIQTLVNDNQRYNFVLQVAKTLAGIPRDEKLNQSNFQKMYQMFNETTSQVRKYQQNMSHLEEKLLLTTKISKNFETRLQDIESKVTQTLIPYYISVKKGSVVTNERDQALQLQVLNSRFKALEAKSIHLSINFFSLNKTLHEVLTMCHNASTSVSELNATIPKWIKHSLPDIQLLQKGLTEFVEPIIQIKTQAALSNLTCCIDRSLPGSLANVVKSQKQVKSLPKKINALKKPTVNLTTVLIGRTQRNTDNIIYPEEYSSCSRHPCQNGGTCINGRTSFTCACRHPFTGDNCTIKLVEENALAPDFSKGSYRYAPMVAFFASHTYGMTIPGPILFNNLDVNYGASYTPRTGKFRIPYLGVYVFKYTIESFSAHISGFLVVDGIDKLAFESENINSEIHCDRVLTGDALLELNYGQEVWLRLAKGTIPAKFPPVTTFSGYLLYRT
# UniProt Q8NBR6: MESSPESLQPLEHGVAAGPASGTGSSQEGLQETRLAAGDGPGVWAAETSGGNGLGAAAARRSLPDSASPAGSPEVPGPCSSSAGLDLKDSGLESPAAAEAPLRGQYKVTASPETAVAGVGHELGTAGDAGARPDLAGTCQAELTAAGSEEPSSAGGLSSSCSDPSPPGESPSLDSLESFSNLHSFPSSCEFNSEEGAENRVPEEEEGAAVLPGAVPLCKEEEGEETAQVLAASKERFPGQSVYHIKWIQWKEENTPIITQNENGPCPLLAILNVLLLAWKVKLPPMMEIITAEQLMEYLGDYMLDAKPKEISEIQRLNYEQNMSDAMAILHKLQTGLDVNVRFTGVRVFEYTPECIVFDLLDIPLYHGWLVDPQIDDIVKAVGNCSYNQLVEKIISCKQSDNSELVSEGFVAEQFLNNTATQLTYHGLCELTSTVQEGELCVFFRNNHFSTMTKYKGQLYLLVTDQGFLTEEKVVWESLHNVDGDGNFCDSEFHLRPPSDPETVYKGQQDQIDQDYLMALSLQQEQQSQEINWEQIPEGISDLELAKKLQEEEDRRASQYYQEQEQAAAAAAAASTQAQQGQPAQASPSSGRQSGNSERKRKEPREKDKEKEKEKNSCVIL
# UniProt O94851, whole entry, looked up: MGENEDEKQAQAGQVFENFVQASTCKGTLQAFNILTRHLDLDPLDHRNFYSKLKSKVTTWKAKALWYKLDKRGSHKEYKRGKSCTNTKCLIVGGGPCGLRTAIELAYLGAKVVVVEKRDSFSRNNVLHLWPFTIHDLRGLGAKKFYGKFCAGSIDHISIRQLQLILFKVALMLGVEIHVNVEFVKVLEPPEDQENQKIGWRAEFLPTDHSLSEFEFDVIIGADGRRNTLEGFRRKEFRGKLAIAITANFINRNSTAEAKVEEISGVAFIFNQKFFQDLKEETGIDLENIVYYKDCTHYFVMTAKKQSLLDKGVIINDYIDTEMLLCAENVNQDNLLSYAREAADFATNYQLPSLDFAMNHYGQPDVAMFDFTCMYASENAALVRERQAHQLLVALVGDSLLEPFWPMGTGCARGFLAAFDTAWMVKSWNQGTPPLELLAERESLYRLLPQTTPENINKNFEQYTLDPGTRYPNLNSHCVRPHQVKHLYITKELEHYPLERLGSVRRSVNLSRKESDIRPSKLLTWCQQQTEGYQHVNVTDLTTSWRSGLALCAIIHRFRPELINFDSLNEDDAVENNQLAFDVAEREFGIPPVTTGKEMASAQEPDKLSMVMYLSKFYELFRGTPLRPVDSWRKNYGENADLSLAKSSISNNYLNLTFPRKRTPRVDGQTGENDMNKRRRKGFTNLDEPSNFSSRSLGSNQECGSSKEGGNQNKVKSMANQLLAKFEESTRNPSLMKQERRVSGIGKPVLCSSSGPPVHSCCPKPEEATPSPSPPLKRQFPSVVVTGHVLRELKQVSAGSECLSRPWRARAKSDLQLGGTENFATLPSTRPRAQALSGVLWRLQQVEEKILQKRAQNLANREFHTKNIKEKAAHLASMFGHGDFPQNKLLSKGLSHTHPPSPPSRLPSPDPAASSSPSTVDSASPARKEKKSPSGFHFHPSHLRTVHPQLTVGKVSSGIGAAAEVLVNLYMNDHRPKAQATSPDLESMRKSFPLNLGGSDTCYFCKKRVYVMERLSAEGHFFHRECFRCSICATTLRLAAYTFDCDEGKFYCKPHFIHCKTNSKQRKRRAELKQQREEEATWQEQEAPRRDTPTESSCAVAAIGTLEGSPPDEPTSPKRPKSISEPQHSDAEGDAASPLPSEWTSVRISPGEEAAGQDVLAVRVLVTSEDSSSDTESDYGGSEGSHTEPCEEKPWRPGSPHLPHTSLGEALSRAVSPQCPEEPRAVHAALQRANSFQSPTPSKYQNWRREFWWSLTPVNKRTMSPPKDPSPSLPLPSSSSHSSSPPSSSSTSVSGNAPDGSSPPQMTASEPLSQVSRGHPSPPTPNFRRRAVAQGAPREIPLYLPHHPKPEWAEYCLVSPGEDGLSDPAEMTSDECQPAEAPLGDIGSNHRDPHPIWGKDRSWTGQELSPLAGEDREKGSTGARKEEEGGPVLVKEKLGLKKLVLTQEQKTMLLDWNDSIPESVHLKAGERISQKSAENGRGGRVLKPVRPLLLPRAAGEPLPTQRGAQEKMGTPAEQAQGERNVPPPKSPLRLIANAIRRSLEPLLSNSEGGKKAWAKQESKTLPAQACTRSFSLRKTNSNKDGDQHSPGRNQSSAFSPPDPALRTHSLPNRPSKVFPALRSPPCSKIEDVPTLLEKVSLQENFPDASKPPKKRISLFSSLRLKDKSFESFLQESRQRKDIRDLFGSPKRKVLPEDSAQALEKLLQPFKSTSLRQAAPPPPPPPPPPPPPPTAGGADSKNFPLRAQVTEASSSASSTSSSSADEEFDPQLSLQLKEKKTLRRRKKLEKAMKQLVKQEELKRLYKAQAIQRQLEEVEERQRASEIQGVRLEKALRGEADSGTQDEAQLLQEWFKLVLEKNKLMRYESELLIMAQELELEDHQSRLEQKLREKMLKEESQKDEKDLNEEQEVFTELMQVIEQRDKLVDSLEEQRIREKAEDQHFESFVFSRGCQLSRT
# UniProt Q7Z3K6: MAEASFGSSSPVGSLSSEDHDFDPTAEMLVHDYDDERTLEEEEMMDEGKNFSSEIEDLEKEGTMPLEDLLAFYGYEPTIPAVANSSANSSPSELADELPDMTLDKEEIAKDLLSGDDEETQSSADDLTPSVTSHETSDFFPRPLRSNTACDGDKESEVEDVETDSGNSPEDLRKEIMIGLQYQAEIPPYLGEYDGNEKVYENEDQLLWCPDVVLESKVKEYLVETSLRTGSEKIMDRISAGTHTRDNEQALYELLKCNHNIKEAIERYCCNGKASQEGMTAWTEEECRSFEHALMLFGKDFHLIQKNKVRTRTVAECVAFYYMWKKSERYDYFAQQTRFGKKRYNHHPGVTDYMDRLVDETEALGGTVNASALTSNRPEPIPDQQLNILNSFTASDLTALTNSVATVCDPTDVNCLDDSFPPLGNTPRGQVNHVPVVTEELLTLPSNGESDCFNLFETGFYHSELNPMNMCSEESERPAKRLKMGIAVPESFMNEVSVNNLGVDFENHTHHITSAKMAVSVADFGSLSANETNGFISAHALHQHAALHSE
# UniProt O95297: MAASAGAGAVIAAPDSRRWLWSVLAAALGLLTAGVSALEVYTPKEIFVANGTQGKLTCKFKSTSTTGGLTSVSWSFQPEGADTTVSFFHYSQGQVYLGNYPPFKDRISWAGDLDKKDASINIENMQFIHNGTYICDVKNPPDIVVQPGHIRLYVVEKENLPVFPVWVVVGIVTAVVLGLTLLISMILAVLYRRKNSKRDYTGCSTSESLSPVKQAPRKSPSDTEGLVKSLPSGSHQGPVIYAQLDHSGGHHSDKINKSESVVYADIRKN
# UniProt Q29983, whole entry, looked up: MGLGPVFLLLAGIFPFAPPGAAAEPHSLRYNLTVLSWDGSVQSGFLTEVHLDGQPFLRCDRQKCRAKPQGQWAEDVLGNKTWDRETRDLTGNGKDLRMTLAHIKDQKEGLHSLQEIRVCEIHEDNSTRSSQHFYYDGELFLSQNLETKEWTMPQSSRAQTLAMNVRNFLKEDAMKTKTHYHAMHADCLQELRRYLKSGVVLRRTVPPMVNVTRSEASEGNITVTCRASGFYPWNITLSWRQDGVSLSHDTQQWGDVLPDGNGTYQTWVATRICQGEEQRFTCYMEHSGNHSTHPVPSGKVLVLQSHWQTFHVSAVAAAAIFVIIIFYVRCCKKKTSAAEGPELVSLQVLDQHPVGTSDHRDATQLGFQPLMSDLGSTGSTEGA
# The other results are listed elsewhere or left out.
# Legend:
# Experiment in all cases: log2 fold change, soluble protein after heating vs DMSO (PISA); higher = thermal stabilisation; K562 cells, 10 uM, 30 min; active = over 0.2 and 3.5 SD of the protein, either way, in both replicates (recomputed)
# saracatinib = compound: CN1CCN(CCOc2cc(OC3CCOCC3)c3c(Nc4c(Cl)ccc5c4OCO5)ncnc3c2)CC1 [saracatinib]
# Method in brief: (§1)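 K562 cells at 2×10^6 cells/mL were exposed to 10 μM compound for 30 min, then aliquots were heated for 3 min across 48°C-58°C, pooled, and extracted in PBS containing 0.5% NP-40 at 4°C. The supernatant after 21,000xg for 90 min was taken as soluble protein and measured by TMTpro 16plex LC-MS/MS with channel sums equalised. Thermal stability is reported relative to control samples, with values from duplicates. Fold changes are given on a log2 scale.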
# sotrastaurin = compound: CN1CCN(c2nc(C3=C(c4c[nH]c5ccccc45)C(=O)NC3=O)c3ccccc3n2)CC1 [sotrastaurin]
# Method in brief: as §1
# Tubastatin A = compound: CN1CCc2c(c3ccccc3n2Cc2ccc(C(=O)NO)cc2)C1 [Tubastatin A]
# Method in brief: as §1
# [1] = compound: CNC(=O)C1=CC=CC=C1NC2=NC(=NC=C2Cl)NC3=C(C=C(C=C3)N4CCOCC4)OC
# Method in brief: as §1
# defactinib = compound: CNC(=O)c1ccc(Nc2ncc(C(F)(F)F)c(NCc3nccnc3N(C)S(C)(=O)=O)n2)cc1 [defactinib]
# Method in brief: as §1
# rucaparib = compound: CNCc1ccc(-c2[nH]c3cc(F)cc4c3c2CCNC4=O)cc1 [rucaparib]
# Method in brief: as §1
# [2] = compound: CNc1nc(-c2ccc3c(N)n[nH]c3c2)cc(N2C[C@@H](C(=O)NC3CCCCC3)CC[C@H]2C)n1
# Method in brief: as §1
# encorafenib = compound: COC(=O)N[C@@H](C)CNc1nccc(-c2cn(C(C)C)nc2-c2cc(Cl)cc(NS(C)(=O)=O)c2F)n1 [encorafenib]
# Method in brief: as §1
# [3] = compound: COC(=O)[C@H](CCSC)NC(=O)C1=C(C=C(C=C1)NC[C@H](CS)N)C2=CC=CC=C2
# Method in brief: as §1
# alvocidib = compound: CN1CC[C@H](c2c(O)cc(O)c3c(=O)cc(-c4ccccc4Cl)oc23)[C@H](O)C1 [alvocidib]
# Method in brief: as §1
target,measurement,setting,value
MON2 isoform 5 (UniProt Q7Z3U7),log2 fold change,saracatinib,inactive: -0.089
same,log2 fold change,sotrastaurin,inactive: -0.001
same,log2 fold change,Tubastatin A,inactive: -0.005
same,log2 fold change,[1],inactive: 0.02
same,log2 fold change,defactinib,inactive: -0.011
same,log2 fold change,rucaparib,inactive: 0.01
same,log2 fold change,[2],inactive: 0.044
same,log2 fold change,encorafenib,inactive: 0.026
same,log2 fold change,[3],inactive: -0.025
MRM2 (UniProt Q9UI43),log2 fold change,saracatinib,inactive: 0.173
same,log2 fold change,Tubastatin A,inactive: -0.07
same,log2 fold change,[1],inactive: 0.033
same,log2 fold change,defactinib,inactive: -0.24
same,log2 fold change,[2],inactive: 0.004
same,log2 fold change,[3],inactive: 0.101
MICAL1 isoform 4 (UniProt Q8TDZ2),log2 fold change,sotrastaurin,inactive: -0.104
same,log2 fold change,alvocidib,inactive: -0.044
same,log2 fold change,[1],inactive: 0.018
same,log2 fold change,defactinib,inactive: -0.189
same,log2 fold change,[3],inactive: 0.082
MLKL (UniProt Q8NB16),log2 fold change,sotrastaurin,inactive: 0.009
same,log2 fold change,alvocidib,inactive: -0.284
same,log2 fold change,Tubastatin A,inactive: -0.003
same,log2 fold change,[1],inactive: -0.355
same,log2 fold change,defactinib,inactive: -0.106
same,log2 fold change,rucaparib,inactive: -0.003
same,log2 fold change,encorafenib,inactive: -0.04
same,log2 fold change,[3],inactive: 0.018
MORC2 (UniProt Q9Y6X9),log2 fold change,[1],inactive: 0.124
MOSPD1 isoform 3 (UniProt Q9UJG1),log2 fold change,[1],inactive: 0.013
MPV17 (UniProt P39210),log2 fold change,sotrastaurin,inactive: 0.054
same,log2 fold change,alvocidib,inactive: -0.031
same,log2 fold change,Tubastatin A,inactive: -0.055
same,log2 fold change,[1],inactive: 0.203
same,log2 fold change,rucaparib,inactive: -0.102
same,log2 fold change,encorafenib,inactive: -0.022
MIER1 isoform 12 (UniProt Q8N108),log2 fold change,saracatinib,inactive: 0.026
same,log2 fold change,sotrastaurin,inactive: -0.024
same,log2 fold change,Tubastatin A,active: 0.297
same,log2 fold change,[1],inactive: -0.058
same,log2 fold change,defactinib,inactive: -0.13
same,log2 fold change,rucaparib,inactive: -0.01
same,log2 fold change,[2],inactive: -0.056
same,log2 fold change,encorafenib,inactive: -0.004
same,log2 fold change,[3],inactive: 0.017
MOCS3 (UniProt O95396),log2 fold change,sotrastaurin,inactive: 0.089
same,log2 fold change,alvocidib,inactive: -0.1
same,log2 fold change,Tubastatin A,inactive: 0.033
same,log2 fold change,[1],inactive: 0.068
same,log2 fold change,defactinib,inactive: 0.127
same,log2 fold change,[3],inactive: 0.092
MMRN1 (UniProt Q13201),log2 fold change,saracatinib,inactive: -0.038
same,log2 fold change,sotrastaurin,inactive: 0.02
same,log2 fold change,[2],inactive: -0.014
MINDY2 (UniProt Q8NBR6),log2 fold change,alvocidib,inactive: 0.034
same,log2 fold change,Tubastatin A,inactive: 0.075
same,log2 fold change,[1],inactive: -0.047
MICAL2 (UniProt O94851),log2 fold change,saracatinib,inactive: -0.008
same,log2 fold change,alvocidib,inactive: 0.101
same,log2 fold change,Tubastatin A,inactive: 0.026
same,log2 fold change,defactinib,inactive: 0.028
same,log2 fold change,rucaparib,inactive: 0.092
same,log2 fold change,[2],inactive: 0.322
same,log2 fold change,encorafenib,inactive: 0.224
same,log2 fold change,[3],inactive: -0.083
MKRN1 (UniProt Q9UHC7),log2 fold change,alvocidib,inactive: 0.103
same,log2 fold change,Tubastatin A,inactive: 0.089
same,log2 fold change,[1],inactive: 0.095
same,log2 fold change,defactinib,inactive: 0.067
same,log2 fold change,[3],inactive: 0.043
MPHOSPH8 isoform 2 (UniProt Q99549),log2 fold change,saracatinib,inactive: 0.088
same,log2 fold change,sotrastaurin,inactive: 0.018
same,log2 fold change,Tubastatin A,inactive: 0
same,log2 fold change,defactinib,inactive: 0.015
same,log2 fold change,[2],inactive: -0.064
same,log2 fold change,[3],inactive: 0.013
MRNIP (UniProt Q6NTE8),log2 fold change,sotrastaurin,inactive: -0.035
same,log2 fold change,Tubastatin A,inactive: 0.117
same,log2 fold change,[1],inactive: -0.029
same,log2 fold change,defactinib,inactive: -0.201
same,log2 fold change,rucaparib,inactive: -0.095
same,log2 fold change,encorafenib,inactive: 0.045
same,log2 fold change,[3],inactive: 0.066
MIER3 isoform 2 (UniProt Q7Z3K6),log2 fold change,defactinib,inactive: -0.011
same,log2 fold change,[3],inactive: 0.117
MPZL1 isoform 3 (UniProt O95297),log2 fold change,saracatinib,inactive: -0.226
same,log2 fold change,alvocidib,inactive: -0.076
same,log2 fold change,Tubastatin A,inactive: 0.032
same,log2 fold change,[2],inactive: 0.004
MICA (UniProt Q29983),log2 fold change,sotrastaurin,inactive: -0.018
same,log2 fold change,Tubastatin A,inactive: 0.007
same,log2 fold change,[1],inactive: -0.035
same,log2 fold change,defactinib,inactive: -0.01
same,log2 fold change,[3],inactive: -0.113
MITF (UniProt O75030),log2 fold change,sotrastaurin,inactive: -0.08
same,log2 fold change,[1],inactive: 0.034
same,log2 fold change,defactinib,inactive: 0.111
same,log2 fold change,rucaparib,inactive: -0.186
same,log2 fold change,encorafenib,inactive: -0.058
same,log2 fold change,[3],inactive: 0.064
MIER2 (UniProt Q8N344),log2 fold change,saracatinib,inactive: 0.026
same,log2 fold change,alvocidib,inactive: -0.319
same,log2 fold change,[1],inactive: 0.087
same,log2 fold change,defactinib,inactive: -0.12
same,log2 fold change,[2],inactive: -0.309
same,log2 fold change,[3],inactive: 0.039
MID1IP1 (UniProt Q9NPA3),log2 fold change,saracatinib,inactive: -0.095
same,log2 fold change,sotrastaurin,inactive: -0.155
same,log2 fold change,Tubastatin A,inactive: 0.248
same,log2 fold change,[1],inactive: 0.047
same,log2 fold change,defactinib,inactive: -0.212
same,log2 fold change,[2],inactive: -0.059
same,log2 fold change,[3],inactive: -0.126
MNT (UniProt Q99583),log2 fold change,sotrastaurin,inactive: 0.085
same,log2 fold change,alvocidib,inactive: 0.048
same,log2 fold change,Tubastatin A,inactive: 0.13
same,log2 fold change,defactinib,inactive: -0.095
same,log2 fold change,[3],inactive: 0.076
MOB3B (UniProt Q86TA1),log2 fold change,Tubastatin A,inactive: -0.03
same,log2 fold change,[1],inactive: -0.324
same,log2 fold change,defactinib,inactive: -0.252
same,log2 fold change,[3],inactive: 0.078
MIGA2 (UniProt Q7L4E1),log2 fold change,alvocidib,inactive: -0.003
MINDY4 (UniProt Q4G0A6),log2 fold change,sotrastaurin,inactive: -0.038

# Part of the list above, bar-delimited.
target | measurement | setting | value
MON2 isoform 5 (UniProt Q7Z3U7) | log2 fold change | encorafenib | inactive: 0.026
same | log2 fold change | [3] | inactive: -0.025
MRM2 (UniProt Q9UI43) | log2 fold change | saracatinib | inactive: 0.173
